Measured values taken from paper doi:10.1101/2023.01.12.523351.
These are yes or no findings as the source states them, for the method shown. Binding seen in cells or lysates may run through a third protein.

Molecular target: Forkhead box O1 (FOXO1) (mouse (endogenous in AML12)), Q9R1E0
Assay: co-IP
Settings: remark: other sources report otherwise

binding: no binding
B1: SMAD3, Q8BUN5 1-425 (protein)
chain: MSSILPFTPPIVKRLLGWKKGEQNGQEEKWCEKAVKSLVKKLKKTGQLDELEKAITTQNVNTKCITIPRSLDGRLQVSHRKGLPHVIYCRLWRWPDLHSHHELRAMELCEFAFNMKKDEVCVNPYHYQRVETPVLPPVLVPRHTEIPAEFPPLDDYSHSIPENTNFPAGIEPQSNIPETPPPGYLSEDGETSDHQMNHSMDAGSPNLSPNPMSPAHNNLDLQPVTYCEPAFWCSISYYELNQRVGETFHASQPSMTVDGFTDPSNSERFCLGLLSNVNRNAAVELTRRHIGRGVRLYYIGGEVFAECLSDSAIFVQSPNCNQRYGWHPATVCKIPPGCNLKIFNNQEFAALLAQSVNQGFEAVYQLTRMCTIRMSFVKGWGAEYRRQTVTSTPCWIELHLNGPLQWLDKVLTQMGSPSIRCSSVS
